According to PubChem BioAssay AID504467 (National Center for Advancing Translational Sciences (NCATS), 2011):
The campaign covered roughly 330,000 compounds. About 7,700 (2.3%) were called active. The shares of active, inactive and inconclusive entries below differ from those in the screen. Calls come from the whole dose curve; as a rule, active = well fitted inhibition curve with a large enough effect; inconclusive = small, poorly fitted or top-dose-only effect, or effect the other way; inactive = flat fitted curve, though single readings scatter. Where the call is inconclusive, the potency comes from a doubtful curve fit.

Assay: qHTS screen for small molecules that inhibit ELG1-dependent DNA repair in human embryonic kidney (HEK293T) cells expressing luciferase-tagged ELG1; note: nearly all actives have a fitted effect of over 55% in size
Details: HEK293T ELG1-luciferase reporter, luminescence, 16 h, DNA damage induced by 5-fluorouridine; series mostly up to 46.1 µM
How it was run: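 HEK293T cells expressing luciferase-tagged ELG1 (2,000/well) received 5-Fluorouridine plus compound or DMSO for 16 hr at 37 °C. Luciferase was read by ONE-Glo luminescence after 30 min at room temperature.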
Potency is the fitted concentration of half-maximal effect.

Row | SMILES | Potency
1 | Cn1cnc([N+](=O)[O-])c1S(=O)(=O)c1cccc(Cl)c1 | inconclusive: 16.4 µM [activator, single point]
2 | COc1ccc(CC(=O)NC(c2ccccc2)c2ccc(C)cc2)c(OC)c1 (stereo not given) | inconclusive: 20.6 µM [inhibitor, single point]
3 | CC(=O)NN1C(=O)/C(=C\c2ccc(Br)o2)SC1=S | inconclusive: 23.1 µM [inhibitor, partial curve, poor fit]
4 | O=c1c2cnn(-c3ccccc3)c2nc(-c2ccco2)n1-c1ccccc1 | active: 6.31 µM
5 | CCc1cn([C@H]2C[C@H](O)[C@@H](CO)O2)c(=O)[nH]c1=O | inactive
6 | O=C(NC(NC(=S)Nc1cccc(C(=O)O)c1)C(Cl)(Cl)Cl)OCc1ccccc1 (stereo not given) | inactive
7 | CC1=NN(C(=O)c2ccc(Cn3nc(C)c([N+](=O)[O-])c3C)o2)C(O)(C(F)(F)F)C1 (stereo not given) | inconclusive: 29.1 µM [inhibitor, single point]
8 | COc1cccc(-c2cc(C(=O)N3CCOCC3)no2)c1 | inconclusive: 2.06 µM [activator, full curve]
9 | COC(=O)c1cc(S(=O)(=O)Nc2cc(OC)cc(OC)c2)cn1C | inactive
10 | c1cn(-c2ncnc3sc4c(c23)CCCC4)cn1 | inconclusive: 23.1 µM [inhibitor, partial curve]
11 | O=C(CCCN1C(=O)CCC1=O)Nc1ccc2c(c1)OCCO2 | inconclusive: 7.31 µM [activator, single point]
12 | CCc1ccc(CNC(=O)c2nn(C)c3c2CS(=O)(=O)c2ccccc2-3)cc1 | inconclusive: 23.1 µM [inhibitor, partial curve]
13 | COc1ccc(N2CCN(c3nc4c(c(=O)n(C)c(=O)n4C)n3Cc3ccccc3)CC2)cc1 | inconclusive: 20.6 µM [inhibitor, single point]
14 | Cc1cc(C(=O)CSc2nnc(N)s2)c(C)n1C1CC1 | inconclusive: 18.3 µM [activator, partial curve, poor fit]
15 | CCOC(=O)CN1C(=O)C(C)(C)Oc2ccc(C(=O)Nc3ccccc3)cc21 | active: 13 µM
16 | CN(c1ccccc1)S(=O)(=O)c1ccc(C(=O)NCCc2ccccc2)cc1 | inconclusive: 18.3 µM [activator, partial curve, poor fit]
17 | COc1ccc2c(c1)OC[C@H]1[C@H]2N2C(=O)c3cc(F)ccc3NC(=O)[C@@]2(C)[C@H]1c1ccccc1 | inactive
18 | Cc1cccc(NC(=O)c2ccc(-c3ccccc3[N+](=O)[O-])o2)c1 | inactive
19 | Cn1c(=O)[nH]c(=O)c2c1nc(N1CCN(c3cccc(Cl)c3)CC1)n2CCCc1ccccc1 | inconclusive: 6.51 µM [inhibitor, single point]
20 | COc1cc(SC)ccc1C(=O)Nc1ccon1 | inconclusive: 18.4 µM [activator, partial curve]
21 | O=[N+]([O-])c1ccc2[nH]cc(S(=O)(=O)N3CCN(c4cccc(Cl)c4)CC3)c2c1 | inactive
22 | COc1ccc(-c2cccc([C@H]3[C@@H]4C=CCC[C@@]4(C)C(=O)N3Cc3ccccc3)c2)cc1 | inconclusive: 25.9 µM [inhibitor, single point]
23 | CCN(CCO)c1ccc(N=Nc2cc(C)[nH]n2)cc1 | inconclusive: 0.206 µM [activator, full curve]

Individual results from the list.
Under Potency, `CCOC(=O)CN1C(=O)C(C)(C)Oc2ccc(C(=O)Nc3ccccc3)cc21` is entered as active: 13 µM
Under Potency, `O=C(CCCN1C(=O)CCC1=O)Nc1ccc2c(c1)OCCO2` is entered as inconclusive: 7.31 µM [activator, single point]

The listing continues:

Row | SMILES | Potency
24 | C/C(=N\NC(=O)c1cc(C2CC2)nc2ccccc12)c1ccc(O)cc1O | inconclusive: 2.91 µM [inhibitor, partial curve]
25 | Cc1nn(C)c(Oc2ccccc2)c1CCNS(=O)(=O)c1ccccc1 | inconclusive: 0.092 µM [inhibitor, full curve, poor fit]
26 | C(=N\N1CCN(Cc2cccc3ccccc23)CC1)/c1ccco1 | inactive
27 | O=C(C1CC1)N1CCc2cc(S(=O)(=O)N3CCCc4ccccc43)ccc21 | inactive
28 | CC(C)(C)c1cc(NC(=O)c2cc(F)c(F)c(F)c2F)no1 | inactive
29 | Cc1cccc(NC(=O)c2ccc(OCC3CCCO3)cc2)c1C (stereo not given) | inconclusive: 14.6 µM [activator, partial curve]
30 | CC(NS(=O)(=O)OCC(Cl)(Cl)Cl)c1ccc(C(C)(C)C)cc1 (stereo not given) | inactive
31 | CC(OC(=O)CNC(=O)C1CCCCC1)C(=O)NCc1ccccc1 (stereo not given) | inactive
32 | CC(C)NC[C@@H](O)COc1cccc2ccccc12 | inactive
33 | N#CC(C#N)=c1ccc2c(c1)NC1(CCCCC1)N=2 | inconclusive: 8.2 µM [inhibitor, single point]
34 | N#Cc1ccccc1S(=O)(=O)N1CCN(c2ccc(S(=O)(=O)N3CCOCC3)cn2)CC1 | inconclusive: 29.1 µM [inhibitor, single point]
35 | CC(C)COc1ccc(C(=O)Nc2cc(S(=O)(=O)N3CCOCC3)ccc2N2CCCC2)cc1 | inconclusive: 4.11 µM [inhibitor, single point]
36 | O=c1c2[nH]c3ccc(F)cc3c2ncn1C1CCCCC1 | inconclusive: 2.59 µM [activator, full curve]
37 | COc1cc2c(cc1NC(=O)c1cccc(F)c1)CCCC2 | inconclusive: 23.1 µM [activator, single point]
38 | CCc1nc(NCCc2ccccn2)c2nnn(Cc3ccccc3F)c2n1 | inconclusive: 25.1 µM [inhibitor, single point]
39 | COc1ccc(Cl)cc1NC(=S)NCCc1ccc(F)cc1 | inactive
40 | CC(/C=N/Nc1ccc2nncn2n1)=C\c1ccccc1 | inconclusive: 16.4 µM [activator, single point]
41 | Cc1cc2ccccn2c1C(=O)c1ccc(NN)c([N+](=O)[O-])c1 | inactive
42 | COc1ccc(-c2cc(C(F)(F)F)nc(N3CCN(Cc4ccccc4)CC3)n2)cc1OC | inactive
43 | CC(=O)Nc1ccc(S(=O)(=O)Nc2cc(C)c(-n3nc4ccccc4n3)cc2O)cc1 | inconclusive: 14.6 µM [inhibitor, partial curve]
44 | CSCC[C@H](NC(=O)Nc1ccccc1C)C(=O)O | inconclusive: 23.1 µM [activator, partial curve]
45 | CCN(CC)C(=O)c1scc2c1OCCO2 | inconclusive: 23.1 µM [inhibitor, single point]

Shown as a markdown table: 2 of the compounds above

| Row | SMILES | Potency |
| --- | --- | --- |
| 2 | COc1ccc(CC(=O)NC(c2ccccc2)c2ccc(C)cc2)c(OC)c1 (stereo not given) | inconclusive: 20.6 µM [inhibitor, single point] |
| 26 | C(=N\N1CCN(Cc2cccc3ccccc23)CC1)/c1ccco1 | inactive |
